The campaign covered roughly 410,000 compounds. About 18,000 (4.4%) were called active. Inconclusive results, whose numbers are uncertain, are shown with a selection of clear calls. No stated cut-off is given here; in the data, active means activity change below about -60%; inconclusive means no clear call, values can overlap the other calls; inactive means above about -39%.
Assay: qHTS Assay for inhibitors of the human cytomegalovirus (HCMV)
Settings: HFF cells, HCMV-luciferase reporter, 72 h; at 57.5 µM; stronger effect = lower value
Method in brief: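 Inhibition of viral replication was scored as loss of reporter luminescence in HFFs infected with HCMV-luciferase (MOI 1 PFU/cell) for 72 h; compounds tested at 2 doses, normalized to buffer and Salinomycin controls.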
On the % scale 0 is the no-effect control and ±100 the full control effect.

| SMILES | activity change, negative = inhibition |
| --- | --- |
| CCc1nc(SCC(=O)N2CCC(C)CC2)c2c(=O)n(C)c(=O)n(C)c2n1 | inconclusive: -41.2% |
| Clc1ccc(-c2nnc(NC3=NCCCCC3)o2)cc1 | inconclusive: -58.1% |
| N#Cc1c(-c2ccc(Cl)cc2)ccnc1N1CCOCC1 | inconclusive: -44% |
| CC(=O)Nc1cccc(C(=O)OCC(=O)NCc2ccc(F)cc2)c1 | inactive: 10.4% |
| COc1ccccc1CCn1cnc(-c2ccc(OC)c(OC)c2)c1C(C)C | active: -109% |
| CCOC(=O)c1c(O)c2c([nH]c1=O)CCCC2 | inconclusive: -41.1% |
| O=C(CNC(=O)c1ccccc1)N/N=C/c1ccc([N+](=O)[O-])o1 | active: -79.7% |
| Cc1cc(C)c(S(=O)(=O)NCC(c2cccs2)S(=O)(=O)c2ccccc2)c(C)c1 (stereo not drawn) | inconclusive: -46.5% |
| O=C(Nc1ccc(Cl)cc1)N1CCN(c2ccc3nnc(-c4ccc(F)cc4)n3n2)CC1 | inconclusive: -53.9% |
| COc1ccc(C(=O)N2CCCC(Nc3ccc(F)cc3)C2)c(OC)c1 (stereo not drawn) | inactive: 1.06% |
| COC(=O)C1=C(c2ccc(Cl)c(C(F)(F)F)c2)C[C@@H]2CC[C@H]1N2C(=O)N1CCOCC1 | inconclusive: -53.6% |
| ClC(Cl)(Cl)c1nc2ccccc2n2nncc12 | active: -88.4% |
| C[C@@H]1CN([C@@H](C)CO)C(=O)CCCn2nncc2CO[C@H]1CN(C)C(=O)Nc1ccc(F)cc1 | inactive: 20.4% |
| CCS(=O)(=O)N1CCN(c2ccc(S(=O)(=O)N3CCOCC3)cc2)CC1 | inconclusive: -58.7% |
| COc1cc2c(c(OC)c1OC)-c1ccc(OC)c(=O)cc1[C@@H](NC(C)=O)CC2 | active: -89.2% |
| Cc1noc(C)c1S(=O)(=O)N1CCC(C(=O)Nc2ccc(OC(F)(F)F)cc2)CC1 | inconclusive: -41.4% |
| Cn1nnnc1Sc1ncnc2scc(-c3cccc4ccccc34)c12 | inconclusive: -53.1% |
| CN(C)c1cccc(C(=O)NNC(=O)NC2CCCCC2)c1 | inconclusive: -46.8% |
| CC#CC(=O)N1CCC(CCc2ccccc2)(C(=O)OCC)CC1 | inconclusive: -40.8% |
| COc1cccc(NC(=O)C2C3C=CC4(O3)C2C(=O)N(CCCN2CCC(C)CC2)C4C(=O)NC2CCCCC2)c1 (stereo not drawn) | inconclusive: -49.5% |
| Cc1ccc(C(C(=O)NC2CCCC2)N(C(=O)c2csnn2)c2cccc(F)c2)o1 (stereo not drawn) | inconclusive: -43.4% |
| CCOc1ccc(-n2cc(C(=O)Nc3ccc(Cl)cn3)c3cc(OC)c(OC)cc3c2=O)cc1 | inconclusive: -55.6% |

3 entries from above, with each value named.
CCc1nc(SCC(=O)N2CCC(C)CC2)c2c(=O)n(C)c(=O)n(C)c2n1
  activity change, negative = inhibition: inconclusive: -41.2%
Clc1ccc(-c2nnc(NC3=NCCCCC3)o2)cc1
  activity change, negative = inhibition: inconclusive: -58.1%
N#Cc1c(-c2ccc(Cl)cc2)ccnc1N1CCOCC1
  activity change, negative = inhibition: inconclusive: -44%

Next entries

| SMILES | activity change, negative = inhibition |
| --- | --- |
| O=C(COC(=O)/C=C/c1ccc(C(F)(F)F)cc1)NCc1ccco1 | inconclusive: -42.6% |
| Nc1c(N(Cc2ccccc2)C(=O)COc2cccc(Cl)c2)c(=O)[nH]c(=O)n1Cc1ccccc1 | active: -78.4% |
| CCOc1cc(/C=C/C(=O)O)ccc1OCCOc1ccccc1 | inconclusive: -41.7% |
| Cc1ccc(/C=C/C(=O)c2cc(Br)ccc2OC(=O)c2ccco2)cc1 | inconclusive: -49.3% |
| CC(C)C1C(c2ccccc2)N(C)C(c2ccccc2)CC1(O)c1ccccc1 (stereo not drawn) | inconclusive: -56.1% |
| CN(N)c1nc(-c2ccccc2)cc(-c2ccccc2)n1 | inconclusive: -41.7% |
| COc1ccc(CCNC(=O)C2CCN(S(=O)(=O)c3cccs3)CC2)cc1OC | active: -95.6% |
| CCCCn1c(=O)c(CCC(=O)O)nc2ccccc21 | inactive: 46.7% |
| COc1ccc(-c2cnc3c(NC=O)cc(-c4ccccc4OC)cn23)cc1OC | active: -79.7% |
| CN(C)S(=O)(=O)c1cccc(-c2nnc(SCc3ccc4c(c3)OCCO4)o2)c1 | inactive: 9.01% |
| Cc1nc(-c2ccc(NC(=O)CC(C)C)cc2)cs1 | active: -76% |
| CCCNC(=O)c1ccc(-n2c(-c3ccccc3)cc3c2CCC(C)C3)cc1 (stereo not drawn) | active: -99.2% |
| Cc1cc(C(F)(F)F)n(-c2nc(C(=O)O)cs2)n1 | inconclusive: -42.4% |
| CCOc1ccc(NC(=O)CN(C)C(=O)c2ccc3c(c2)C(=O)N(CCC(C)C)C3=O)cc1OCC | inactive: 9.19% |
| Cc1cc(C)c2c(=O)n3c(nc2c1)C(CC(C)C)NC(=O)c1cc2ccccc2cc1-3 (stereo not drawn) | inconclusive: -53.8% |
| CCCCC[C@H]1CN(C2CCCCC2)C(=O)[C@@H]1CC(=O)NCc1ccc(OC)cc1 | inconclusive: -54.5% |
| O=C(Nc1cc(C(F)(F)F)ccc1N1CCCCC1)c1ccco1 | inconclusive: -57.4% |
| Cc1c(Cl)c([N+](=O)[O-])nn1CCCC(=O)Nc1cccc(Cl)c1Cl | inactive: -36.8% |
| COc1cccc(-c2cc(C(=O)NCC3CCCO3)c3cc(Br)cc(C)c3n2)c1 (stereo not drawn) | active: -60.3% |
| COc1cc(CCC(O)CC(=O)CCc2ccccc2)ccc1O (stereo not drawn) | inactive: 2.62% |
| CCOC(=O)CC1(C)Oc2ccccc2N1S(=O)(=O)c1ccc(C)cc1 (stereo not drawn) | inactive: -17.3% |
